No constants are given. Whether binding was seen depends on the method and setting. Binding seen in cells or lysates may run through a third protein. Binding calls can cover weak binding; strength is not graded here.
Target: FLAG-tagged WT Bmal1 (adenovirus) (mouse) (UniProt Q9WTL8)
Test: co-IP; anti-FLAG beads on lysates of insulin-treated (50 nM, 30 min) primary hepatocytes infected with Ad-FLAG-tagged WT or S42A Bmal1; blot for 14-3-3β

The chains behind the UniProt entries cited, without tags or fusion partners. Where a name states a change or a piece, a line headed by the entry shows the natural chain unless it says otherwise.
UniProt Q9WTL8: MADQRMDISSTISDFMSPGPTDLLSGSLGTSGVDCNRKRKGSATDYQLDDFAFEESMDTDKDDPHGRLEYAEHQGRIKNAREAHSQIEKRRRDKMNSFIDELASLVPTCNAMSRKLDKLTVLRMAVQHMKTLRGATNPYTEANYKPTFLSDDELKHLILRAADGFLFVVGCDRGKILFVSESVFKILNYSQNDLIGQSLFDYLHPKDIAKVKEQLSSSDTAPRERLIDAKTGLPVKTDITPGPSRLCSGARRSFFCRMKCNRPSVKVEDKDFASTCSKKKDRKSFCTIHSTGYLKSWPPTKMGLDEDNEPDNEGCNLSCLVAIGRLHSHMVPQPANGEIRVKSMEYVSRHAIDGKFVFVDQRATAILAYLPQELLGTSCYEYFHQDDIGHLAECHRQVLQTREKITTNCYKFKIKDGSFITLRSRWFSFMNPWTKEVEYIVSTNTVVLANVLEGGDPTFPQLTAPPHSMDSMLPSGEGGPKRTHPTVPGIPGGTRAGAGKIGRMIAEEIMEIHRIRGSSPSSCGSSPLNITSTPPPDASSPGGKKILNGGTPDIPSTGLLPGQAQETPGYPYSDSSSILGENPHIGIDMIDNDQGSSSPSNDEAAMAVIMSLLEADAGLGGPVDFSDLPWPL

binding: binds
B1: 14-3-3β (protein, UniProt Q9CQV8 1-246)
chain: MTMDKSELVQKAKLAEQAERYDDMAAAMKAVTEQGHELSNEERNLLSVAYKNVVGARRSSWRVISSIEQKTERNEKKQQMGKEYREKIEAELQDICNDVLELLDKYLILNATQAESKVFYLKMKGDYFRYLSEVASGENKQTTVSNSQQAYQEAFEISKKEMQPTHPIRLGLALNFSVFYYEILNSPEKACSLAKTAFDEAIAELDTLNEESYKDSTLIMQLLRDNLTLWTSENQGDEGDAGEGEN

Reference: article PMC5013695
